According to publication PMC11194096:
These are yes or no findings as the source states them, for the method shown. Binding seen in cells or lysates may run through a third protein. A yes stands for co-enrichment or nearness to the bait. Other partners may have been found.

Amino acid sequences for entries named in this document (tags omitted). Residues count along the entry.
UniProt P53395, residues 62-482: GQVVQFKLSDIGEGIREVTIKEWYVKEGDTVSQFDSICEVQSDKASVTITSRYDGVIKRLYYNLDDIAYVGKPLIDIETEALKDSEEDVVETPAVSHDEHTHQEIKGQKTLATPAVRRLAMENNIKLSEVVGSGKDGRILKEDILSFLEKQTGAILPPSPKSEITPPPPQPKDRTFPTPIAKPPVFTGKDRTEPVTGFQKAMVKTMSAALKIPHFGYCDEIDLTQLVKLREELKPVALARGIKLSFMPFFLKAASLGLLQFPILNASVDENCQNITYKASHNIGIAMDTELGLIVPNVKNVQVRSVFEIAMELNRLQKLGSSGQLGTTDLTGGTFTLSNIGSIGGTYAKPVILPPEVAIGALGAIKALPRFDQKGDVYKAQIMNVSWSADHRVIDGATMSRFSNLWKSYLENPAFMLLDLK

T1: MCCA (mouse (endogenous in heart)) (UniProt Q99MR8)
T1 sequence: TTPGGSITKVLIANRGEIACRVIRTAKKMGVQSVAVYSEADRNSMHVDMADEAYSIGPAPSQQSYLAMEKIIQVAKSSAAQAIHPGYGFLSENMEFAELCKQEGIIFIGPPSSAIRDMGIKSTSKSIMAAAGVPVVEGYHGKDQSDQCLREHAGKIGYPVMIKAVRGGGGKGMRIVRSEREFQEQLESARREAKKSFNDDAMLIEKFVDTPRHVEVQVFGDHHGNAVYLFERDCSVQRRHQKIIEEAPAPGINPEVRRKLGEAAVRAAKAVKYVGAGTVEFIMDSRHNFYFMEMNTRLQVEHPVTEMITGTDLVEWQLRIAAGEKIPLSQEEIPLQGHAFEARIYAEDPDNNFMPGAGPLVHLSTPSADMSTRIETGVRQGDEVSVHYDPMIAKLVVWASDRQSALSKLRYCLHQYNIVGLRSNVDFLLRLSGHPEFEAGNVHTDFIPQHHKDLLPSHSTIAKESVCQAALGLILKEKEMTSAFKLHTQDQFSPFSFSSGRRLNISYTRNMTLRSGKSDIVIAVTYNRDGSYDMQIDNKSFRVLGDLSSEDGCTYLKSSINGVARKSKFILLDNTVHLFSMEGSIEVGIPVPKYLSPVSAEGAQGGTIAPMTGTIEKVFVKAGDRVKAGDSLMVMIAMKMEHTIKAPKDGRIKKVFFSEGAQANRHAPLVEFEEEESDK


Experiments:
[1] = target: DBT, dihydrolipoyl transacylase (E2 component of the BCKDH complex) (mouse (endogenous in heart)) (UniProt P53395); experiment: affinity purification with mass spectrometry; immunoprecipitation with 2 ug antibody against DBT or MCCA and G-Sepharose beads from 1 mg heart protein lysate in RIPA buffer (50 mM Tris-HCl pH 7.4, 1% NP-40, 0.25% sodium deoxycholate, 150 mM NaCl), overnight at 4°C, three washes with RIPA; bound proteins analysed by mass spectrometry; hearts of WT and mitolnc-deficient mice, no apparent differences in composition
[2] = target: T1, MCCA (mouse (endogenous in heart)); experiment: as above

Binder | binding [1] | binding [2]
BCKDHA (E1 subunit of the BCKDH complex) (protein, UniProt P50136 43-442) PSLDDKPQFPGASAEFVDKLEFIQPNVISGIPIYRVMDRQGQIINPSEDPHLPQEEVLKFYRSMTLLNTMDRILYESQREGRISFYMTNYGEEGTHVGSAAALERTDLVFGQYREAGVLMYRDYPLELFMSQCYGNVNDPGKGRQMPVHYGCKERHFVTISSPLATQIPQAVGAAYAAKRANANRIVICYFGEGAASEGDAHAGFNFAATLECPIIFFCRNNGYAISTPTSEQYRGDGIAARGPGYGIKSIRVDGNDVFAVYNATKEARRRAVAENQPFLIEAMTYRIGHHSTSDDSSAYRSVDEVNYWDKQDHPISRLRQYLLNQGWWDEEQEKAWRKQSRKKVMEAFEQAERKLKPNPSLLFSDVYQEMPAQLRRQQESLARHLQTYGEHYPLDHFEK | binds | binds
BCKDHB (E1 subunit of the BCKDH complex) (protein, UniProt Q6P3A8 49-390) VAHFTFHPDPESLQYGQTQKMNLFQSITSALDNSLAKDPTAVIFGEDVAFGGVFRCTVGLRDKYGKDRVFNTPLCEQGIVGFGIGIAVTGATAIAEIQFADYIFPAFDQIVNEAAKYRYRSGDLFNCGSLTIRAPWGCVGHGALYHSQSPEAFFAHCPGIKVVIPRSPFQAKGLLLSCIEDKNPCIFFEPKILYRAAVEQVPVEPYKIPLSQAEVIQEGSDVTLVAWGTQVHVIREVASMAQEKLGVSCEVIDLRTIVPWDVDTVCKSVIKTGRLLISHEAPLTGGFASEISSTVQEECFLNLEAPISRVCGYDTPFPHIFEPFYIPDKWKCYDALRKMINY | binds | binds
DLD, FAD-dependent dihydrolipoyl dehydrogenase (E3 component of the BCKDH complex) (protein, UniProt O08749 36-509) ADQPIEADVTVIGSGPGGYVAAIKSAQLGFKTVCIEKNETLGGTCLNVGCIPSKALLNNSHYYHMAHGKDFASRGIEIPEVRLNLEKMMEQKHSAVKALTGGIAHLFKQNKVVHVNGFGKITGKNQVTATKADGSTQVIDTKNILVATGSEVTPFPGITIDEDTIVSSTGALSLKKVPEKLVVIGAGVIGVELGSVWQRLGADVTAVEFLGHVGGIGIDMEISKNFQRILQRQGFKFKLNTKVTGATKKSDGKIDVSVEAASGGKAEVITCDVLLVCIGRRPFTQNLGLEELGIELDPKGRIPVNNRFQTKIPNIYAIGDVVAGPMLAHKAEDEGIICVEGMAGGAVHIDYNCVPSVIYTHPEVAWVGKSEEQLKEEGIEFKIGKFPFAANSRAKTNADTDGMVKILGHKSTDRVLGAHILGPGAGEMVNEAALALEYGASCEDIARVCHAHPTLSEAFREANLAAAFGKPINF | binds | binds
